Experimental findings from article PMC6160451 are described below.

Protein sequences, listed by entry. Tags and fused reporters are not part of them.
UniProt Q8N2Y8: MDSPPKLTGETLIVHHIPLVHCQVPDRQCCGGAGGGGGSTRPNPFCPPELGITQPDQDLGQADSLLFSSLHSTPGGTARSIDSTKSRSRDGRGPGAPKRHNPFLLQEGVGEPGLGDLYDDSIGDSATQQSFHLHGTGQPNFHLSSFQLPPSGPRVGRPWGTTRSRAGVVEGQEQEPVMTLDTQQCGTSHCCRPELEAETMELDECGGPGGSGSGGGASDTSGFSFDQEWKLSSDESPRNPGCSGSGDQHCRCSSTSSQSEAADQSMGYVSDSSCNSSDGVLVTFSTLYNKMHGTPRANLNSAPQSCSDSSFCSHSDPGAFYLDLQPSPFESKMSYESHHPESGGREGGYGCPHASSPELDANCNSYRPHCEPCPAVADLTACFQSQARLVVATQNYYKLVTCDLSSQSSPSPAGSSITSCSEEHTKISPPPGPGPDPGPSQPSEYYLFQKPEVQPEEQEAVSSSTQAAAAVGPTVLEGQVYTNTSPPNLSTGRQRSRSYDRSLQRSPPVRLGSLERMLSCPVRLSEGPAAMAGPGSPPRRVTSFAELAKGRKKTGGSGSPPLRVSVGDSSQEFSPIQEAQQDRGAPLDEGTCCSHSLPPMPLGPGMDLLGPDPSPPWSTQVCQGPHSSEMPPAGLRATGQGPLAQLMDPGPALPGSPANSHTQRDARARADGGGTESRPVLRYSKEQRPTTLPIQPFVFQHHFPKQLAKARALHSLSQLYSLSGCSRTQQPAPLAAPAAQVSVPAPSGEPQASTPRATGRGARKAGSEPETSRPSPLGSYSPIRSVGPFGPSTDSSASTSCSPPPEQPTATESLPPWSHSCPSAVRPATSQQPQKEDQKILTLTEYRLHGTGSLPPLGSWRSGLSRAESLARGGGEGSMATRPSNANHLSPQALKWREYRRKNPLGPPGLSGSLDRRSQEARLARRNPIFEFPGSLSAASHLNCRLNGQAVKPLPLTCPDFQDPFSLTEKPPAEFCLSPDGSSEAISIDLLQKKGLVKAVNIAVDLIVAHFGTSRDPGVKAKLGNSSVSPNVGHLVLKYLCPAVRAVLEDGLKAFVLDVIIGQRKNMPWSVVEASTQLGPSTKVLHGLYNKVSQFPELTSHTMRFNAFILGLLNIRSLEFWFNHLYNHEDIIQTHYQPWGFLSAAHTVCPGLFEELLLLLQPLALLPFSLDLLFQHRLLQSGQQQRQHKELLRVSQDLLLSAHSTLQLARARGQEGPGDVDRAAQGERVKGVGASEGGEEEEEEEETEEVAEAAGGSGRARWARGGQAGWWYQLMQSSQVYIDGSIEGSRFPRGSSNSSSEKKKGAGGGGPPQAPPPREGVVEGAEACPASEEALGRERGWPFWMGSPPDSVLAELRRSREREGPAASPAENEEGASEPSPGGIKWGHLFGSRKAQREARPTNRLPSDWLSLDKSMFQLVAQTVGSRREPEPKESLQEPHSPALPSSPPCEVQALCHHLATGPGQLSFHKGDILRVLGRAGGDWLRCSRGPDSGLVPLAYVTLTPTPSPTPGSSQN

The target of one experiment is T1, AP4E1-BirA* (human) (UniProt Q9UPM8).
T1 sequence: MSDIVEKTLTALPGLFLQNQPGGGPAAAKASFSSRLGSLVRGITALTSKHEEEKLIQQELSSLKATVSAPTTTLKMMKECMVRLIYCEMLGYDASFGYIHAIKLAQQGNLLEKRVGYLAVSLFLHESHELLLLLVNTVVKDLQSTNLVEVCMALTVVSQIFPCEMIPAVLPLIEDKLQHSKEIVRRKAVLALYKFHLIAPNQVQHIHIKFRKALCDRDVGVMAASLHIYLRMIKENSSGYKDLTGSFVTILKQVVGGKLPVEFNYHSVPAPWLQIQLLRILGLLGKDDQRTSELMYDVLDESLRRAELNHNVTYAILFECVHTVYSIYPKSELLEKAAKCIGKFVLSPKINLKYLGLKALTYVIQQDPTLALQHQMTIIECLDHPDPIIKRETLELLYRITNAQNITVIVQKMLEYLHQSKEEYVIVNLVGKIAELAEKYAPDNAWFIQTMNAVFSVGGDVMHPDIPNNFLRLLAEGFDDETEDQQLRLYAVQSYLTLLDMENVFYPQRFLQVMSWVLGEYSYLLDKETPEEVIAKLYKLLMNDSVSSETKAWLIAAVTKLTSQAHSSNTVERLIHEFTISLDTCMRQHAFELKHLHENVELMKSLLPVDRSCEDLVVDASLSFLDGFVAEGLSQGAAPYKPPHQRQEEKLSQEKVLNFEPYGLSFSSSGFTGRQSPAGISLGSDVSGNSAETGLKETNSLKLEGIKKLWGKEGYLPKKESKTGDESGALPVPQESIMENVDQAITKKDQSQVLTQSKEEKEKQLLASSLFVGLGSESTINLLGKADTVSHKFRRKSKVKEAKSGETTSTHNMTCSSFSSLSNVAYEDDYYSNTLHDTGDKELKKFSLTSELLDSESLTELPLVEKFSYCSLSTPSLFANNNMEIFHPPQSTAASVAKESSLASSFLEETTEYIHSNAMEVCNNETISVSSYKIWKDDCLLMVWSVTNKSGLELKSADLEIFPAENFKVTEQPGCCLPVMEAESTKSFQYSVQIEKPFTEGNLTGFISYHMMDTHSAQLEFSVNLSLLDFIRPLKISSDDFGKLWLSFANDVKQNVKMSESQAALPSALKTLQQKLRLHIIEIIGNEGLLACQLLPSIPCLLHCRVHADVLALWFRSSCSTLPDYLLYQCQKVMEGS
As to the kind of experiment: proximity labelling; BioID: HeLa cells stably expressing the BirA*-tagged AP-4 subunit, 50 µM biotin for 24 h, RIPA lysis, streptavidin agarose, label-free quantitative MS against HeLa, HeLa BirA* and HeLa GFP-BirA* controls, triplicate, FDR 5%.

The target in the next experiment is T2, AP4M1-BirA* (human) (UniProt O00189).
T2 sequence: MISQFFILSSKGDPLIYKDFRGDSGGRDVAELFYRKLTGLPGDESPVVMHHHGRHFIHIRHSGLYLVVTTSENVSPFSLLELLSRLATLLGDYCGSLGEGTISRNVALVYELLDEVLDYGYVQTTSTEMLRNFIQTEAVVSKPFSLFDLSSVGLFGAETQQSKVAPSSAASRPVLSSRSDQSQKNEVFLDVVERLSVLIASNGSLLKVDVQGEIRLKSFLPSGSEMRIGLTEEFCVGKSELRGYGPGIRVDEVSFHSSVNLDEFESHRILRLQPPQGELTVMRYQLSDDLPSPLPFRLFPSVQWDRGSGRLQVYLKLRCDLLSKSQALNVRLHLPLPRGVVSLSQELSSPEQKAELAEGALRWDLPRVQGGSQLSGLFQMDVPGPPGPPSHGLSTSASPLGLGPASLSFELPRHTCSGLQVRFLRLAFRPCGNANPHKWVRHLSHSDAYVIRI
Described as above.

Experiment [1] addresses T3, TEPSIN-GFP (human) (UniProt Q96N21).
T3 sequence: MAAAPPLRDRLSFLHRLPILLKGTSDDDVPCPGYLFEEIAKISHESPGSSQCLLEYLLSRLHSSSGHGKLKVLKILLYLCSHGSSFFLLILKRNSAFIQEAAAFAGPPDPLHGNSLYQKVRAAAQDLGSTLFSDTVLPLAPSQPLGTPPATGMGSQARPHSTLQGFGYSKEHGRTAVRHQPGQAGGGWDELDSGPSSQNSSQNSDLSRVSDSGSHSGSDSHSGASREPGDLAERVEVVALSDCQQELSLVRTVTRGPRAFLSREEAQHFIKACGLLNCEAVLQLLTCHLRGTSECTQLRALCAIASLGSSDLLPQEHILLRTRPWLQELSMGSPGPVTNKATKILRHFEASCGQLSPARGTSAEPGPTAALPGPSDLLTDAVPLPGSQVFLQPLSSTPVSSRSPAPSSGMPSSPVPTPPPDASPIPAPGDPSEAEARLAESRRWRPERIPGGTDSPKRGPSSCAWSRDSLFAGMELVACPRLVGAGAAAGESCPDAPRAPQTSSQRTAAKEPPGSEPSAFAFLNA
Nature of the experiment: affinity purification with mass spectrometry; sensitive low-detergent immunoprecipitation of TEPSIN-GFP from HeLa homogenate with GFP-Trap A beads, PBS with 0.01% Triton X-100, 4 °C, SILAC comparison with parental HeLa.

For experiment [2], the target named is T3, TEPSIN-GFP (human). Nature of the experiment: condition: only conventional immunoprecipitation protocol (PBS, 0.2% Triton X-100, 0.1% Tween-20); affinity purification with mass spectrometry; conventional immunoprecipitation of TEPSIN-GFP from HeLa lysate in PBS, 0.2% Triton X-100, 0.1% Tween-20, rabbit anti-GFP and Protein A sepharose, SILAC comparison with wild-type HeLa.

These are yes or no findings as the source states them, for the method shown. In cells and extracts the contact can be indirect. Here binding means that the protein was enriched with, or labelled near, the bait; the list need not be complete. For part of these data: A no says only that the protein was not detected with the bait. For part of these data: Sequences can lack the tags named with a protein.

Regarding “RUSC2 (RUN and SH3 domain-containing protein 2) (from UniProt Q8N2Y8 1-1516)”, the binding result with AP4E1-BirA* (human) and with AP4M1-BirA* (human) was “binds” in each case.

B1: SERINC1 (Serine incorporator 1) (protein, UniProt Q9NRX5 1-453)
chain: MGSVLGLCSMASWIPCLCGSAPCLLCRCCPSGNNSTVTRLIYALFLLVGVCVACVMLIPGMEEQLNKIPGFCENEKGVVPCNILVGYKAVYRLCFGLAMFYLLLSLLMIKVKSSSDPRAAVHNGFWFFKFAAAIAIIIGAFFIPEGTFTTVWFYVGMAGAFCFILIQLVLLIDFAHSWNESWVEKMEEGNSRCWYAALLSATALNYLLSLVAIVLFFVYYTHPASCSENKAFISVNMLLCVGASVMSILPKIQESQPRSGLLQSSVITVYTMYLTWSAMTNEPETNCNPSLLSIIGYNTTSTVPKEGQSVQWWHAQGIIGLILFLLCVFYSSIRTSNNSQVNKLTLTSDESTLIEDGGARSDGSLEDGDDVHRAVDNERDGVTYSYSFFHFMLFLASLYIMMTLTNWYRYEPSREMKSQWTAVWVKISSSWIGIVLYVWTLVAPLVLTNRDFD
Consider B1, for which the results for the binding result with TEPSIN-GFP (human) [1] and with TEPSIN-GFP (human) [2] were “binds” and “no binding”, respectively.

B2: TEPSIN (protein, UniProt Q96N21 1-525)
chain: T3 sequence
On to B2, for which the binding entry with AP4E1-BirA* (human) and with AP4M1-BirA* (human) was “binds” each time.

B3: SERINC3 (Serine incorporator 3) (protein, UniProt Q13530 1-473)
chain: MGAVLGVFSLASWVPCLCSGASCLLCSCCPNSKNSTVTRLIYAFILLLSTVVSYIMQRKEMETYLKKIPGFCEGGFKIHEADINADKDCDVLVGYKAVYRISFAMAIFFFVFSLLMFKVKTSKDLRAAVHNGFWFFKIAALIGIMVGSFYIPGGYFSSVWFVVGMIGAALFILIQLVLLVDFAHSWNESWVNRMEEGNPRLWYAALLSFTSAFYILSIICVGLLYTYYTKPDGCTENKFFISINLILCVVASIISIHPKIQEHQPRSGLLQSSLITLYTMYLTWSAMSNEPDRSCNPNLMSFITRITAPTLAPGNSTAVVPTPTPPSKSGSLLDSDNFIGLFVFVLCLLYSSIRTSTNSQVDKLTLSGSDSVILGDTTTSGASDEEDGQPRRAVDNEKEGVQYSYSLFHLMLCLASLYIMMTLTSWYSPDAKFQSMTSKWPAVWVKISSSWVCLLLYVWTLVAPLVLTSRDFS
With B3, the binding result is on record as “binds” with TEPSIN-GFP (human) [1] and “no binding” with TEPSIN-GFP (human) [2].

B4: ATG9A (Autophagy-related protein 9A) (protein, UniProt Q7Z3C6 1-839)
chain: MAQFDTEYQRLEASYSDSPPGEEDLLVHVAEGSKSPWHHIENLDLFFSRVYNLHQKNGFTCMLIGEIFELMQFLFVVAFTTFLVSCVDYDILFANKMVNHSLHPTEPVKVTLPDAFLPAQVCSARIQENGSLITILVIAGVFWIHRLIKFIYNICCYWEIHSFYLHALRIPMSALPYCTWQEVQARIVQTQKEHQICIHKRELTELDIYHRILRFQNYMVALVNKSLLPLRFRLPGLGEAVFFTRGLKYNFELILFWGPGSLFLNEWSLKAEYKRGGQRLELAQRLSNRILWIGIANFLLCPLILIWQILYAFFSYAEVLKREPGALGARCWSLYGRCYLRHFNELEHELQSRLNRGYKPASKYMNCFLSPLLTLLAKNGAFFAGSILAVLIALTIYDEDVLAVEHVLTTVTLLGVTVTVCRSFIPDQHMVFCPEQLLRVILAHIHYMPDHWQGNAHRSQTRDEFAQLFQYKAVFILEELLSPIVTPLILIFCLRPRALEIIDFFRNFTVEVVGVGDTCSFAQMDVRQHGHPQWLSAGQTEASVYQQAEDGKTELSLMHFAITNPGWQPPRESTAFLGFLKEQVQRDGAAASLAQGGLLPENALFTSIQSLQSESEPLSLIANVVAGSSCRGPPLPRDLQGSRHRAEVASALRSFSPLQPGQAPTGRAHSTMTGSGVDARTASSGSSVWEGQLQSLVLSEYASTEMSLHALYMHQLHKQQAQAEPERHVWHRRESDESGESAPDEGGEGARAPQSIPRSASYPCAAPRPGAPETTALHGGFQRRYGGITDPGTVPRVPSHFSRLPLGGWAEDGQSASRHPEPVPEEGSEDELPPQVHKV
On to B4, for which the binding entry with TEPSIN-GFP (human) [1] was “binds”; with AP4E1-BirA* (human) it was “binds”; in the experiment with AP4M1-BirA* (human), “binds”; with TEPSIN-GFP (human) [2], “no binding”.
